Test: density and max drug loading of antimicrobial agents considered for carrier particles
Format: physicochemical
Details: Table 7

Question: For `CN(C)c1cc(NC(=O)CNC(C)(C)C)c(O)c2c1C[C@H]1C[C@H]3[C@H](N(C)C)C(O)=C(C(N)=O)C(=O)[C@@]3(O)C(O)=C1C2=O` [Tigecycline], which “Max Drug Loading” value is on record?
Answer: 20%
